Source: patent publication US12391695B2, “PRMT5 inhibitors” (Lupin Limited, priority 2019, dated 2025)
Some results were stated once for a whole list of compounds, not compound by compound. Some ranges recur; such a range may be that of the whole group of compounds.

System: MIA PaCa-2 cells
Assay: Anti-cancer assay (MiaPaCa-2), cell viability by CellTiterGlo
Assay type: cell-based
Conditions: 10 days treatment, range with mixed units pM/nM, units kept in the value, read-out: IC50 (activity range), inhibition of cell viability

SMILES	IC50
CC1CNCc2c(CCC3=C[C@@H](n4ccc5c(N)ncnc54)[C@H](O)[C@@H]3O)cc(C(F)F)c(F)c21 (single isomer, unassigned) [Compound 22B]	1 to 40000 pM
CC1Cc2c(F)c(C(F)F)cc(CCC3=C[C@@H](n4ccc5c(N)ncnc54)[C@H](O)[C@@H]3O)c2CN1 (single isomer, unassigned) [Compound 23A]	1 to 40000 pM
Nc1nc2cc(CCC3=C[C@@H](n4cnc5c(N)ncnc54)[C@H](O)[C@@H]3O)cc(F)c2cc1Cl [Compound 1, (1S,2R,5R)-3-(2-(2-Amino-3-chloro-5-fluoroquinolin-7-yl)ethyl)-5-(6-amino-9H-purin-9-yl)cyclopent-3-ene-1,2-diol]	1 to 40000 pM
Nc1nc2cc(CCC3=C[C@@H](n4ccc5c(N)ncnc54)[C@H](O)[C@@H]3O)cnc2cc1Cl [Compound 2, (1S,2R,5R)-3-(2-(6-Amino-7-chloro-1,5-naphthyridin-3-yl)ethyl)-5-(4-amino-7H-pyrrolo [2,3-d]pyrimidin-7-yl)cyclopent-3-ene-1,2-diol]	1 to 40000 pM
Nc1nc2cc(CCC3=C[C@@H](n4ncc5c(N)ncnc54)[C@H](O)[C@@H]3O)cc(F)c2cc1Cl [Compound 5, (1S,2R,5R)-5-(4-Amino-1H-pyrazolo[3,4-d]pyrimidin-1-yl)-3-(2-(2-amino-3-chloro-5-fluoroquinolin-7-yl)ethyl)cyclopent-3-ene-1,2-diol]	1 to 40000 pM
Cc1nc(N)c2cnn([C@@H]3C=C(CCc4cc(F)c5cc(Cl)c(N)nc5c4)[C@@H](O)[C@H]3O)c2n1 [Compound 6, (1S,2R,5R)-3-(2-(2-amino-3-chloro-5-fluoroquinolin-7-yl)ethyl)-5-(4-amino-6-methyl-1H-pyrazolo[3,4-d]pyrimidin-1-yl)cyclopent-3-ene-1,2-diol]	1 to 40000 pM
Nc1ncnc2c1ccn2[C@@H]1C=C(CCc2cc(C(F)F)c(F)c3c2CNCC3)[C@@H](O)[C@H]1O [Compound 13, (1S,2R,5R)-5-(4-amino-7H-pyrrolo[2,3-d]pyrimidin-7-yl)-3-(2-(6-(difluoromethyl)-5-fluoro-1,2,3,4-tetrahydroisoquinolin-8-yl)ethyl)cyclopent-3-ene-1,2-diol]	1 to 40000 pM
Nc1nc2cc(CCC3=C[C@@H](n4ccc5c4ncn4ccnc54)[C@H](O)[C@@H]3O)cc(F)c2cc1Cl [Compound 27, (1S,2R,5R)-3-(2-(2-Amino-3-chloro-5-fluoroquinolin-7-yl)ethyl)-5-(7H-imidazo[1,2-c]pyrrolo[3,2-e]pyrimidin-7-yl)cyclopent-3-ene-1,2-diol]	1 to 40000 pM
CONc1ncnc2c1ccn2[C@@H]1C=C(CCc2cc(F)c3cc(Cl)c(N)nc3c2)[C@@H](O)[C@H]1O [Compound 30, (1S,2R,5R)-3-(2-(2-Amino-3-chloro-5-fluoroquinolin-7-yl)ethyl)-5-(4-(methoxyamino)-7H-pyrrolo[2,3-d]pyrimidin-7-yl)cyclopent-3-ene-1,2-diol]	1 to 40000 pM
